# In PMC7819943, “Rice protein-binding microarrays: a tool to detect cis-acting elements near promoter regions in rice”:
# By UniProt entry, the sequences of proteins in these tests, tags left out.
# UniProt Q0JBA9, entry or part of it: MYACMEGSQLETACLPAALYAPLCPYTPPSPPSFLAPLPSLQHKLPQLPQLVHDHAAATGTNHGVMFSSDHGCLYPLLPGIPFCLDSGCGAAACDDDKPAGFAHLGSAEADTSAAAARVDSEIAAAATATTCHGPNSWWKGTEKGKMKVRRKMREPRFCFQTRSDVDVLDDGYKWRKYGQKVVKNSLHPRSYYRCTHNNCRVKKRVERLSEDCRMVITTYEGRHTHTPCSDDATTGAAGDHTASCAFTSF
# This is one part of the list.
# Target: OsWRKY34 (Oryza sativa, UniProt Q0JBA9 1-250)
# Test: protein-binding microarray (RPBM); PBS, 2% BSA, 51.3 ng/ul salmon testes DNA, 50 uM zinc acetate, 200 nM TF, 25 C, 1 h; high values mean tight binding
# Details: protein: recombinant; tags: N-terminal polyhistidine and DsRed monomer fusion (pET32a); label: CyDye5-dUTP incorporated in the synthesized complementary strand; 3' TTTTT single-stranded linker to array surface; dsDNA, one strand shown
# Summary of the method: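 The binding signal is fluorescence intensity per feature, in arbitrary units, read on an Axon 4000B scanner. Polyhistidine- and DsRed-tagged transcription factors (N-terminal fusions) from E. coli BL21-CodonPlus were purified on Ni–NTA and applied at 200 nM for 1 h at 25 °C to a double-stranded, BSA-blocked custom Agilent array in buffer with 50 µM zinc acetate.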
row,Sequence,binding signal
1,GAAACCACACCACATCAAACACAGAGCCTTATAATTTGCCCGGAGTCACCTAGTGCAG,8410 fluorescence intensity (a.u.)
2,GAGGGAGGTAATTCGTCCGGTTTGCATAGTTAGGGGTGAACGGAGTCACCTAGTGCAG,9340 fluorescence intensity (a.u.)
3,ACTTCGGTTCTTCCCTCTTCCCATTTCCGCGCGGCGCAACCGGAGTCACCTAGTGCAG,8460 fluorescence intensity (a.u.)
4,ACACGGTTACTTATACTACCCTCATTGATGGTTATTGCAACGGAGTCACCTAGTGCAG,9030 fluorescence intensity (a.u.)
5,CTGTAGATGTTGTTGACCTGACTTGATGTTGTGCTTGTTACGGAGTCACCTAGTGCAG,8420 fluorescence intensity (a.u.)
6,TGTATTCTAAAGTTCGTGTTATCTGTAACCCGCTGCTCTTCGGAGTCACCTAGTGCAG,8580 fluorescence intensity (a.u.)
7,GAAGCTTCGGGAGTGGTGGTGGGTTGCGGCCGTGCGGCTCCGGAGTCACCTAGTGCAG,10900 fluorescence intensity (a.u.)
8,CTTTTTAGCATATGTTTGACCGTTTGTCTTATTTAAAATACGGAGTCACCTAGTGCAG,9700 fluorescence intensity (a.u.)
9,CAGCATCCATGTCTCCATATAACTTGCAAGTACTTTAATCCGGAGTCACCTAGTGCAG,8080 fluorescence intensity (a.u.)
10,CACTGCTGAACATCTTGAATGATTTGTTTTCAGGGACCTTCGGAGTCACCTAGTGCAG,8870 fluorescence intensity (a.u.)
11,CTACTGTTTCTGTTTCTGTTTCTGTGCAAATCAAATTCAACGGAGTCACCTAGTGCAG,14300 fluorescence intensity (a.u.)
12,GGAGGGAGTAATAGTCAGTGATTGGCTGGGTGGATAGAATCGGAGTCACCTAGTGCAG,9120 fluorescence intensity (a.u.)
13,CTGGGTACTCGGTATTGTTCTTTATGCAAGCTTAGCTTTCCGGAGTCACCTAGTGCAG,8770 fluorescence intensity (a.u.)
14,CATCTTCACAGTCACACACCGAACGCGACAAGCAGACCGACGGAGTCACCTAGTGCAG,8750 fluorescence intensity (a.u.)
15,TATTATTCAGGTTTTTGGACACACTACTACCCCTTGTTTTCGGAGTCACCTAGTGCAG,11300 fluorescence intensity (a.u.)
16,CATCTCCTCCCGCTCCCGCTCGCTCGCGCCATTTTCCAGCCGGAGTCACCTAGTGCAG,8960 fluorescence intensity (a.u.)
17,CACCATATCATTCCAGATGTACTGTAATCATTCTCGGGTTCGGAGTCACCTAGTGCAG,8960 fluorescence intensity (a.u.)
18,CTGCCTAAACCCAGCTCCATCTCTCTAGTTCATTTTGTGACGGAGTCACCTAGTGCAG,9340 fluorescence intensity (a.u.)
19,GGTATTGAACCAATGTTTTGCCATACAGCTGATCCGAAAACGGAGTCACCTAGTGCAG,8370 fluorescence intensity (a.u.)
20,TTCTTCTAGAGGAGGAGGAGGCGGCGGGGCGGCGGGCGAGCGGAGTCACCTAGTGCAG,17300 fluorescence intensity (a.u.)
21,GATCCACCTTTACCGCAAGGATTCTACGGCAACGGATTCGCGGAGTCACCTAGTGCAG,8820 fluorescence intensity (a.u.)
22,GCCTATCCACAACATCGTCGCAGGCCTTCTTTTTCCCTCGCGGAGTCACCTAGTGCAG,8320 fluorescence intensity (a.u.)
23,GGGATACTTGGTTAATTATAGTCAGATCAATTTTATTTTCCGGAGTCACCTAGTGCAG,9550 fluorescence intensity (a.u.)
24,TGTGCATTTATTACGCCTATATTTTGTTCTTTTTTTTTTCCGGAGTCACCTAGTGCAG,12900 fluorescence intensity (a.u.)
25,AATGCTGTGAACACCTGGTTGGTTGGGTGTTTTTGCTTCTCGGAGTCACCTAGTGCAG,9590 fluorescence intensity (a.u.)
26,GTCCATTGGCAAATTACCACGTTTATGAAGTGTTTTCCTCCGGAGTCACCTAGTGCAG,9210 fluorescence intensity (a.u.)
27,AACTTCGAAGAAATTTCGCAAACGGTTCACACTCCACGAACGGAGTCACCTAGTGCAG,8230 fluorescence intensity (a.u.)

# Look-ups from the entries so far:
# GAAACCACACCACATCAAACACAGAGCCTTATAATTTGCCCGGAGTCACCTAGTGCAG | binding signal: 8410 fluorescence intensity (a.u.)
# CTGCCTAAACCCAGCTCCATCTCTCTAGTTCATTTTGTGACGGAGTCACCTAGTGCAG | binding signal: 9340 fluorescence intensity (a.u.)
# TTCTTCTAGAGGAGGAGGAGGCGGCGGGGCGGCGGGCGAGCGGAGTCACCTAGTGCAG | binding signal: 17300 fluorescence intensity (a.u.)

# Continued.

row,Sequence,binding signal
1,TGCATCATTGACTCATCATCCATGCATCCAATTCCATTTACGGAGTCACCTAGTGCAG,10500 fluorescence intensity (a.u.)
2,TTGTCAAATGCTGTTGTGCCAGAAGATGTACCGTTCAGTCCGGAGTCACCTAGTGCAG,8490 fluorescence intensity (a.u.)
3,ATCTCAAACCCCACACATTCCCCACAATCCGCTCGCCATGCGGAGTCACCTAGTGCAG,8540 fluorescence intensity (a.u.)
4,GCCTCCACCAATCTCCTGCAGCCCTATTGTTGCCTCCTTGCGGAGTCACCTAGTGCAG,13900 fluorescence intensity (a.u.)
5,TGCAGAACCTCTCTCCCTTCTTGGTTCTTCTTCTCATCTCCGGAGTCACCTAGTGCAG,9490 fluorescence intensity (a.u.)
6,GGCTACTCAGAAAGTCTTACCACGCAAAAGATTAATCATACGGAGTCACCTAGTGCAG,8100 fluorescence intensity (a.u.)
7,TTTAATTTGTTTTTTTCGTTGTAACATGTAGAAATTAAATCGGAGTCACCTAGTGCAG,8750 fluorescence intensity (a.u.)
8,CTCTTTTCTTTTGCTAGTCATACGTGCATATATAACCAAACGGAGTCACCTAGTGCAG,8120 fluorescence intensity (a.u.)
9,TCGCAGCGCAGGCCGCTGCTTCTTCTTCTTCTTCCTTCCACGGAGTCACCTAGTGCAG,8310 fluorescence intensity (a.u.)
10,ACCTCCCACGGATCGCTCCATTTTCACCTCCGCGCCCAAACGGAGTCACCTAGTGCAG,9570 fluorescence intensity (a.u.)
11,TTATCTGTTTGGTCATTTTCTTTGCATGTGGTTTGGTTTTCGGAGTCACCTAGTGCAG,14100 fluorescence intensity (a.u.)
12,CATACGCTCCTTTATTTGTTCACACTTATACATCAATAAGCGGAGTCACCTAGTGCAG,8560 fluorescence intensity (a.u.)
13,ATGTTTGACTCTACATTCTCTCTCTCTTCTTTTTGTTTAACGGAGTCACCTAGTGCAG,11700 fluorescence intensity (a.u.)
14,TCGGCCTGCTCCCGCCCGTCGCCGTCCACTCCTCAACCGCCGGAGTCACCTAGTGCAG,11800 fluorescence intensity (a.u.)
15,GGTTGCTGACAGGTGGTCCCGCGGGGTGGATGGGGCCCACCGGAGTCACCTAGTGCAG,9040 fluorescence intensity (a.u.)
16,CTCTCTTTTTTTTTTTGTTGTTGAACTAGTTGTGTGCATTCGGAGTCACCTAGTGCAG,9300 fluorescence intensity (a.u.)
17,TCGTCATCAGTTCATCGCTCGTGTCTGCTCTGTTTAGACACGGAGTCACCTAGTGCAG,8310 fluorescence intensity (a.u.)
18,ACATTGGGTTGGAGTGGATTATTTTTTTCCTTTGTTTTCCCGGAGTCACCTAGTGCAG,14200 fluorescence intensity (a.u.)
19,TTAGTTCGCGAAAAGAAAATTTTTAGGTGTCACATTTTTTCGGAGTCACCTAGTGCAG,9420 fluorescence intensity (a.u.)
20,GCTAACATGGCTCGTTGACCCACCCAACCTGCTGACTCATCGGAGTCACCTAGTGCAG,10600 fluorescence intensity (a.u.)
21,CACTCAACCTAACTGTTGAACGGTCCTGTTCTGGCCAACGCGGAGTCACCTAGTGCAG,8890 fluorescence intensity (a.u.)
22,CTATTACCTGAACATCGCGCATTTGCCATCTAATGCACCACGGAGTCACCTAGTGCAG,8160 fluorescence intensity (a.u.)
23,CGAGGGTTTGGGAGTCGGGGAATTCGGGGTTTGGGGCCGCCGGAGTCACCTAGTGCAG,26700 fluorescence intensity (a.u.)
24,GCATCTTGTTAAGTTGTGTGACTATGTTGCTTTGTTTTCTCGGAGTCACCTAGTGCAG,11800 fluorescence intensity (a.u.)
25,CAGATATGGATGGGTTGGTTTCCGATGTTTGGGAGACAAACGGAGTCACCTAGTGCAG,9850 fluorescence intensity (a.u.)
26,ATCCTTAAGGGGTCTTTTTTTTTGCAATTTTTCACTTAATCGGAGTCACCTAGTGCAG,8410 fluorescence intensity (a.u.)
27,TATGAGCGTTTGACCATTCGTCTTATTCAAAATTTTTGTGCGGAGTCACCTAGTGCAG,8200 fluorescence intensity (a.u.)
